In PubChem BioAssay AID1654 (Sanford-Burnham Center for Chemical Genomics, 2009) one finds inhibition data, which are given here for 72 compounds.

Chains of the proteins cited; added tags and fusions are not shown. Lines headed by an entry give the natural chain unless they say otherwise; changes in a name come on top.
UniProt P51452: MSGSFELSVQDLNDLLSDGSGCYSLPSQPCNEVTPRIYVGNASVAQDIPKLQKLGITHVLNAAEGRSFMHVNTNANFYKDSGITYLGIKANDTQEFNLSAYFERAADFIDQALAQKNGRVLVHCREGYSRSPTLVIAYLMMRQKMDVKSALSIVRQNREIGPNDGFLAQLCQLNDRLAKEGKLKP

The other results are listed elsewhere or left out. The main result of the screen is listed elsewhere. These columns were measured beside it and carry no call.

This assay addresses Dual specificity protein phosphatase 3 (Homo sapiens) (UniProt P51452). The assay can be described thus: inhibition of human DUSP3 activity – biochemical, absorbance, uHTS, primary screen (AID 1654). As to conditions: recombinant VHR phosphatase, pNPP absorbance; measured here: average of confirmation repeats; at 13.3 µM; stronger effect = higher value.
Consider `Cc1ccc(NC(=O)Cn2c(O)c(N=NC(=O)c3cc([N+](=O)[O-])ccc3O)c3ccccc32)cc1`, for which the inhibition – broadly, the change of the read-out against control, counted positive when it falls – was 87.4%.

Turning to `Cc1cc(C)n(Cc2ccc(C(=O)N/N=C/c3ccc(-c4ccc([N+](=O)[O-])cc4)o3)o2)n1`, the inhibition came to 65%. The value for `NS(=O)(=O)c1cc(C(=O)NC2CCSc3ccccc32)ccc1Cl` (configuration not stated) was 108%; that for `CN1CCN(C(=O)c2sc(=S)n(-c3ccccc3)c2N)CC1` was 66.2%; that for `O=C(O)c1cccc(-c2ccc(/C=c3/sc4nc5ccccc5n4c3=O)o2)c1` was 79.9%. Take `Cc1c(CCC(=O)O)c(=O)oc2c(C)c3occ(-c4ccc(Br)cc4)c3cc12`: the inhibition came out at 84.9%. The value for `COc1cc(/C=C2\SC(=O)N(c3cccc(Cl)c3)C2=O)cc([N+](=O)[O-])c1O` was 94.8%.

As to `COc1ccc(NC(=S)N(CCC(C)C)C2CCN(C(C)C)CC2)cc1Cl`, the inhibition came out at 83.6%. With `NC(=O)C1(N2CCCCC2)CCN(C(=S)Nc2ccc(S(N)(=O)=O)cc2)CC1` the figure was 81.1%; with `Cc1snc2sc(C(=O)c3ccc(F)cc3)c(N)c12`, 116%; with `O=C(O)C1CCC(N2C(=O)c3c(Cl)c(Cl)c(Cl)c(Cl)c3C2=O)CC1` (configuration not stated), 89.8%. With `COC(=O)c1ccc(=O)c2nc3/c(=C/O)c(O)cc(=O)c3[nH]c12` the figure was 83.6%. With `S=C(NCCCN1CCOCC1)NCCCN1CCOCC1` the figure was 77.4%; with `Cc1cc2nc(-c3ccc(SCc4ccc(C(=O)O)cc4)nc3)[nH]c2cc1C`, 73.7%. For `COc1cccc(/C=N/NC(=O)c2cc3cc([N+](=O)[O-])ccc3s2)c1O`, the inhibition came out at 104%.

For the compound `O=S(=O)(O)c1cccc2c(N=Nc3ccc(O)c4ncccc34)cccc12`, the inhibition was determined as 92.3%. The value for `Cc1c(CCC(=O)O)c(=O)oc2c(C)c(OCc3cc4c(cc3Cl)OCO4)ccc12` was 67.5%; that for `Cc1ccccc1N1C(=O)/C(=C/c2ccco2)C(=O)NC1=S` was 99.8%. With `Cc1ccc(-c2nc(NC(=O)CSc3cc(C)c4ccccc4n3)ns2)cc1` the figure was 52.6%; with `Cc1ccc(/C=C/c2nc3sc(C(=O)O)c(C)c3c(=O)[nH]2)cc1[N+](=O)[O-]`, 94.8%. The value for `O=C(N/N=C/c1ccccc1Cl)c1nc2ccc([N+](=O)[O-])cc2c(=O)[nH]1` was 116%; that for `Cc1c(N=Nc2c(-c3ccc([N+](=O)[O-])cc3)[nH]n(C(N)=S)c2=O)cccc1[N+](=O)[O-]` was 82.4%. Consider `S=C(NCCc1ccccc1)Nc1c(Cl)cccc1Cl`, for which the inhibition worked out at 87.4%. With `COc1cc(/C=C2\SC(=O)N(CC(=O)Nc3ccc(C)cc3)C2=O)cc(Cl)c1OCC(=O)O` the figure was 108%. With `O=C(O)CCN1C(=O)/C(=C2\C(=O)N(Cc3ccccc3Cl)c3ccccc32)SC1=S` the figure was 115%. As to `O=C(CN1C(=O)/C(=C2\SC(=S)N(CCS(=O)(=O)O)C2=O)c2ccccc21)Nc1cccc(Br)c1`, the inhibition turned out to be 110%. The value for `CN1C(=O)/C(=C2\SC(=S)N(CCCCCC(=O)O)C2=O)c2ccccc21` was 101%; that for `COC(=O)c1sc(NC(=O)c2cc(-c3ccccc3)nc3ccccc23)c(C#N)c1C` was 72.4%. With `COc1ccc(NC(=O)c2cc3c(COC(C)=O)cnc(C)c3oc2=Nc2cccc(C(=O)O)c2)c(OC)c1` the figure was 101%. With `Cc1ccc(NC(=O)CN2C(=O)S/C(=C\c3cccn3-c3cccc(C(=O)O)c3)C2=O)c(C)c1` the figure was 98.5%; with `CCC(=S)/C=C1\Sc2ccccc2N1CCCS(=O)(=O)O`, 50.1%. Turning to `CCOC(=O)c1sc2nc3c(SCCC(=O)O)cc(C(=O)c4cc(OC)ccc4O)cn3c(=O)c2c1C`, the inhibition is 106%. Take `Cn1nc(-c2ccccn2)nc2c(=O)n(C)c(=O)nc1-2`: the inhibition was 101%. The value for `O=C(O)c1cc(-c2ccc(/C=c3\sc4nc5ccc(Br)cc5n4c3=O)o2)ccc1Cl` was 114%; that for `COc1cc(/C=C2\SC(=O)N(c3ccc(Cl)cc3)C2=O)cc([N+](=O)[O-])c1O` was 83.6%. With `O=C(N/N=C/c1cn(Cc2cccc(F)c2)c2ccccc12)c1cc(O)cc(O)c1` the figure was 107%; with `Cc1ccc(NC(=O)CN2C(=O)S/C(=C\c3cccn3-c3cccc(C(=O)O)c3)C2=O)cc1C`, 51.3%. With `Cc1ccc(-n2c(=O)c3cc4c(=O)n(-c5ccc(C)c(C)c5)c(=O)c4c(C(=O)c4ccc(C(=O)O)cc4)c3c2=O)cc1C` the figure was 105%; with `CCOc1cc(/C=N/N=C2/NC(=O)C(CC(=O)O)S2)ccc1OCc1ccc(Cl)cc1Cl` (configuration not stated), 50.1%. For `COc1cc(/C=C2\SC(=O)N(Cc3ccc(Cl)cc3)C2=O)cc([N+](=O)[O-])c1O`, the inhibition is 66.2%. As for `CCCc1nc2c(=O)n(C)c(=O)nc-2n(C)n1`, the inhibition amounted to 97.3%. With `O=C1NC(=S)N(c2ccc(F)cc2)C(=O)/C1=C/c1ccco1`, the inhibition was determined as 88.6%. The value for `COc1ccc(N=C2S/C(=C\c3ccc(OCC(=O)O)cc3)C(=O)N2CCc2c[nH]c3ccccc23)cc1` was 121%. With `CS(=O)(=O)c1ccc2c(c1)sc1nc(=O)c(/C=C3/C=CC(=O)C(O)=C3)c(N)n12` the figure was 86.1%; with `O=C(O)c1cccc(-n2cccc2/C=C2/NC(=O)N(c3ccc(Cl)cc3)C2=O)c1`, 101%; with `CN1CCN(C(=S)C(=O)Nc2ccc(Br)cc2)CC1`, 60%. The value for `COc1ccc(OC)c(N2C(=O)/C(=C/c3ccco3)C(=O)NC2=S)c1` was 98.5%; that for `Cn1ncnc2c(=O)n(C)c(=O)nc1-2` was 122%. As to `COc1cc(C(=S)N2CCCCC2)ccc1O`, the inhibition amounted to 84.9%. Regarding `O=c1c(O)cccc2cc(O)c(O)c(O)c12`, the inhibition came to 108%. With `CSc1nc(SCC(=O)O)c2sc3nc(-c4ccccc4)c4c(c3c2n1)CCC4` the figure was 106%; with `CCOC(=O)c1sc2nc3c(SCC(=O)O)cc(C(=O)c4ccccc4O)cn3c(=O)c2c1C`, 108%. With `Cc1ccc(-n2c(N)c(C(=O)N3CCN(C)CC3)sc2=S)cc1` the figure was 53.8%.

In the case of `COc1ccc(-n2cccc2/C=C2\C(=N)N3N=C(c4ccco4)SC3=NC2=O)cc1`, the inhibition turned out to be 56.3%. With `O=C(CSc1nc(-c2ccc(F)cc2)nc2c1Cc1ccccc1O2)Nc1ccc(C(=O)O)cc1` the figure was 55%; with `CCn1nc(/C=C/c2ccccc2)nc2c(=O)n(C)c(=O)nc1-2`, 107%. Consider `Oc1c(Br)cc(/C=N/n2c(-c3ccccc3)n[nH]c2=S)c(Br)c1O`, for which the inhibition was found to be 102%. With `O=C(O)COc1ccc(/C=N/NC(=O)c2ccc(-c3csc(Nc4ccc(Cl)cc4)n3)cc2)cc1` the figure was 106%; with `CCOC(=O)C1=C(C)N=c2s/c(=C\c3ccc(OCC(=O)O)cc3)c(=O)n2C1c1ccc(Cl)cc1` (configuration not stated), 97.3%; with `CCOC(=O)C1=C(C)N=c2s/c(=C/c3ccc(OCC(=O)O)cc3)c(=O)n2C1c1ccc(SC)cc1` (configuration not stated), 51.3%. With `O=C(Nc1ccc(Cl)c(Cl)c1)Nc1nnc(-c2ccncc2)s1` the figure was 61.3%; with `O=C(O)c1ccc(-c2ccc(/C=c3/sc4nc5ccccc5n4c3=O)o2)cc1Cl`, 101%. With `NS(=O)(=O)c1ccc(NC(=S)NC2CCCCC2)cc1` the figure was 91.1%; with `COC(=O)Nc1sc2c(c1C(N)=O)CCC(C)C2` (configuration not stated), 84.9%; with `S=C(c1cn(CCOc2ccccc2)c2ccccc12)N1CCCC1`, 89.8%. With `O=C(CSc1nnc(SCc2ccc(Cl)cc2)s1)N/N=C/c1c[nH]c2ccccc12`, the inhibition turned out to be 104%. With `O=C(O)CSc1cc(C(=O)c2ccccc2O)cn2c(=O)c3c4c(sc3nc12)CCCC4` the figure was 96.1%; with `Cc1cc(=O)oc2cc(OCC(=O)N/N=C/c3cc([N+](=O)[O-])ccc3O)ccc12`, 56.3%. With `O=C(c1cccs1)c1no[n+]([O-])c1C(=O)c1cccs1` the figure was 94.8%; with `O=c1oc2c(O)c(O)cc3c(=O)oc4c(O)c(O)cc1c4c23`, 114%; with `CCc1ccc(N=C2NC(=O)/C(=C/c3cc(Br)c(OCC(=O)O)c(OC)c3)S2)cc1`, 88.6%. Take `O=C(O)c1ccc(NC(=S)NC(=O)c2ccc(-c3ccc(Br)cc3)o2)cc1`: the inhibition worked out at 106%.
